Assay [1] has as its target GFP-tagged full-length srGAP2 R527A (human) (UniProt O75044). In words: co-IP; non-tagged srGAP3 and GFP-tagged srGAPs co-transfected into HEK293FT; lysed 24-36 h later in nuclear lysis buffer (20 mM Tris-Cl pH 7.8, 125 mM NaCl, 5 mM MgCl2, 0.2 mM EDTA, 12% glycerol, 0.1% NP-40); precipitated with GFP antibody on protein A/G beads; blot with srGAP3 antibody 3A1.
The target in assay [2] is GFP-tagged full-length srGAP1 (srGAP1-WT) (human) (UniProt Q7Z6B7). The description is as above.
The target in assay [3] is GFP-tagged full-length srGAP2 (srGAP2-WT) (human) (UniProt O75044). The description is as above.
The target of assay [4] is endogenous srGAP2 of Neuro2a cells (mouse (endogenous in Neuro2a)) (UniProt Q91Z67). In words: co-IP; endogenous proteins; Neuro2a lysates precipitated with srGAP2 (2A2) and srGAP3 (3A1) antibodies, blot with srGAP3 antibody 3A3.
The target in assay [5] is GFP-tagged full-length srGAP3 (srGAP3-WT) (human) (UniProt O43295). The assay is described as follows: co-IP; non-tagged srGAP3 and GFP-tagged srGAPs co-transfected into HEK293FT; lysed 24-36 h later in nuclear lysis buffer (20 mM Tris-Cl pH 7.8, 125 mM NaCl, 5 mM MgCl2, 0.2 mM EDTA, 12% glycerol, 0.1% NP-40); precipitated with GFP antibody on protein A/G beads; blot with srGAP3 antibody 3A1.

Chains of the proteins cited; added tags and fusions are not shown.
UniProt Q7Z6B7: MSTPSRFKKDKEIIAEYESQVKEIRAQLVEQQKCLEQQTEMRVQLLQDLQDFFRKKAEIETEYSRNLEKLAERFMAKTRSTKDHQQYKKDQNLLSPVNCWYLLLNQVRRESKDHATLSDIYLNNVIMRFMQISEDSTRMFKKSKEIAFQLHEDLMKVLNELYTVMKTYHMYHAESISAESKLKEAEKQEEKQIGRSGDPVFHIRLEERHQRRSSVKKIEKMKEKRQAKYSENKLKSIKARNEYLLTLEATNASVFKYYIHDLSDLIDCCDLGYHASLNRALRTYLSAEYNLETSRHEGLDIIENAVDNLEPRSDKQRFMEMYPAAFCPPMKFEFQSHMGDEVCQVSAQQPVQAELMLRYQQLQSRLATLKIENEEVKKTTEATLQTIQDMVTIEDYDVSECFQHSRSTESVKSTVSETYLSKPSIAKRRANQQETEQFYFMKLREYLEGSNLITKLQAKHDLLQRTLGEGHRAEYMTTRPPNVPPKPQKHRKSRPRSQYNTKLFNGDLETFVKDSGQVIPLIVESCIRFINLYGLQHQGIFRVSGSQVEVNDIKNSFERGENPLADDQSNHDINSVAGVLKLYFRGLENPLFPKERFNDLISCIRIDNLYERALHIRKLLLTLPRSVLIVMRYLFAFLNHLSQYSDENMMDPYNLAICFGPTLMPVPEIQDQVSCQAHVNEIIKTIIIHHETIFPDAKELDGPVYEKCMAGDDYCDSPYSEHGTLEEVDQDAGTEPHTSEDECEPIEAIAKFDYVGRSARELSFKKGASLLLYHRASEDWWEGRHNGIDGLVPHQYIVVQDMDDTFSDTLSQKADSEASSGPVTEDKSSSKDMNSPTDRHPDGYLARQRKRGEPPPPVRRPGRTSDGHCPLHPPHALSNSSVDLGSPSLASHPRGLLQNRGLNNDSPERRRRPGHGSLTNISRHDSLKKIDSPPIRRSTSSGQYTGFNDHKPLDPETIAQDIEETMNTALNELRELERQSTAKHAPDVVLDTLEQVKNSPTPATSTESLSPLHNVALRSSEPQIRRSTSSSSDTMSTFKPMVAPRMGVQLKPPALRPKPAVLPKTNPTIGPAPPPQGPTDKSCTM
UniProt O43295: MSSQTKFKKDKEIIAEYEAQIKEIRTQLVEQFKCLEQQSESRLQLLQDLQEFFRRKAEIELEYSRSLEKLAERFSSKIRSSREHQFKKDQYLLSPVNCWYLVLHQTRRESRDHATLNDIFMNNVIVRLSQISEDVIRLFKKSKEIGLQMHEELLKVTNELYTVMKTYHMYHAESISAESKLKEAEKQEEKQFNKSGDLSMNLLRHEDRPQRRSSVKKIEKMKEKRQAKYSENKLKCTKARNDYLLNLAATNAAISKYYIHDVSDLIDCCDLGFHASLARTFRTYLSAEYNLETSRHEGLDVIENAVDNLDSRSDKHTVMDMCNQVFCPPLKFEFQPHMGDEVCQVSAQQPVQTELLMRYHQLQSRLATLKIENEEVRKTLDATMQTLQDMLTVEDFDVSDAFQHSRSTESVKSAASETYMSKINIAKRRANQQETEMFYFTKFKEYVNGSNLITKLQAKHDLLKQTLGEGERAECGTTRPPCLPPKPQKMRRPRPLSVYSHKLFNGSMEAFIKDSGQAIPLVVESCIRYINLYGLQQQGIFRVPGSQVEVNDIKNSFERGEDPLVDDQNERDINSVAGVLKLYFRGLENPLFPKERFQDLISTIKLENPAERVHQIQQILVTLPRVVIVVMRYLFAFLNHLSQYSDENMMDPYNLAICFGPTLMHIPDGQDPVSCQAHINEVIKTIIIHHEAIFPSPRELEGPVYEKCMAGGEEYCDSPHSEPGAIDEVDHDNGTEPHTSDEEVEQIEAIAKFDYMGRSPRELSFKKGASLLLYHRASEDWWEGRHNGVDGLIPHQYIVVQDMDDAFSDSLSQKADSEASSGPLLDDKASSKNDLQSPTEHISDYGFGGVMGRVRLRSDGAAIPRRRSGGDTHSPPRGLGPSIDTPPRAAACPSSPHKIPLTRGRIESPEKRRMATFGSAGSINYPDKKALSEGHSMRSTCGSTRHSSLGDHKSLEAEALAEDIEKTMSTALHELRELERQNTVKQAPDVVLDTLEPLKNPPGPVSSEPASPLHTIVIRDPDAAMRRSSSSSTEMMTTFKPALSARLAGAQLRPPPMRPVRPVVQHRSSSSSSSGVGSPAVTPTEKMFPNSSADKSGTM
UniProt Q812A2: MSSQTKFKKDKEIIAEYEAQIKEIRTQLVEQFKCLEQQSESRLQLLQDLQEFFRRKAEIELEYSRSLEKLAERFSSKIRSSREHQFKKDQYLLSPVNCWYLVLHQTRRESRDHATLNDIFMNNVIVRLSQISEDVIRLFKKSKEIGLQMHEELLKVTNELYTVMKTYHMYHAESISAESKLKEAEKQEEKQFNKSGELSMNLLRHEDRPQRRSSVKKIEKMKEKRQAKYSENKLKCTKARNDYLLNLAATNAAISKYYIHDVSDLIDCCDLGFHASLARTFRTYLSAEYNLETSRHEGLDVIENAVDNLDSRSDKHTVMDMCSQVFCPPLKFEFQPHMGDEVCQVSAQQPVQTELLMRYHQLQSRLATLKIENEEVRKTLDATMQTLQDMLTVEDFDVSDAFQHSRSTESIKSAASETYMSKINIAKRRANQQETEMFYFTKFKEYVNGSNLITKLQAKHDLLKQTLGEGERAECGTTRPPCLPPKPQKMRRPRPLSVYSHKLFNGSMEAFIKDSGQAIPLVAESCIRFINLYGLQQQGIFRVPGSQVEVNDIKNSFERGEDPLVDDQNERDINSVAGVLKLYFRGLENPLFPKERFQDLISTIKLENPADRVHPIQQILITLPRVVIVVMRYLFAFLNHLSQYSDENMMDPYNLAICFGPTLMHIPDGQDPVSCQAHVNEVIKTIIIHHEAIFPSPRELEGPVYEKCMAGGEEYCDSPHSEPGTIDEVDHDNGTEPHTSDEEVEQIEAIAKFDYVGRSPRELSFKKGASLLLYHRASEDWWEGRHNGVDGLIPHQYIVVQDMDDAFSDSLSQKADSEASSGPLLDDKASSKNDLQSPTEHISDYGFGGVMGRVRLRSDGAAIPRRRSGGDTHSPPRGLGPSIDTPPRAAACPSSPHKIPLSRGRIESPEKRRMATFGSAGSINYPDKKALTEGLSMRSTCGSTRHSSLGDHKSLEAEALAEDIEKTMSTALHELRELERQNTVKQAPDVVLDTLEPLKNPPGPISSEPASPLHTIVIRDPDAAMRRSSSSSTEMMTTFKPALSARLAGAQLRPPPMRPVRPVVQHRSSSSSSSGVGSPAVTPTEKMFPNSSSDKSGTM

This is an account of results in article PMC3591447.

These are yes or no findings as the source states them, for the method shown. Binding seen in cells or lysates may run through a third protein. Some results given as binding are weak or reduced against the parent protein; the word gives no strength.

With “non-tagged srGAP3 (from UniProt O43295 1-1099)”, the binding result in assay [1], in assay [2] and in assay [3] was “binds” throughout. Take “endogenous srGAP3 of Neuro2a cells (from UniProt Q812A2 1-1099)”: the binding result in assay [4] is on record as “binds”. Consider “GFP-tagged full-length srGAP3 (srGAP3-WT) (from UniProt O43295 1-1099)”, for which the binding entry in assay [5] is “binds”.
